Reference: patent publication US20230120205A1, “NERVE CELL DEGENERATION INHIBITOR” (KYOTO UNIVERSITY, priority 2020, published 2023)
Some results were stated once for a whole list of compounds, not compound by compound.

Columns and labels:
[1] = tested on: ALS7 (C9orf72) cell-derived motor neurons; assay: RNA foci inhibitory activity (FISH with Cy3 probe, high-content analysis); assay type: cell-based, human; conditions: over concentration range of 1-10 μM
Source text: Using ALS7 (C9orf72) cell line described in K. Imamura et al, Science Translational Medicine 2017, 9, eaaf3962, the effect of the compound used in the present invention on RNA foci was examined. The cell line is stable cell line prepared by introducing the tetracycline-induced Lhx3, Ngn2 and Isl1 genes into iPS cell lines established from a familial ALS patient with abnormal expansion of the G4C2 repeat of the C9orf72 gene. Therefore, ALS7 (C9orf72) cell is an ALS cell model that rapidly (within about 7 days) differentiates into motor neurons when tetracycline or a derivative thereof is added to the medium, and after differentiation, spontaneously goes on to cell death (see the above documents). […] ALS7 (C9orf72) cells were cultured on feeder cells (mitomycin-treated SNL cells) using an iPS cell maintenance medium consisting of Primate ES Cell medium (ReproCell, […]), 4 ng/ml hbFGF (Wako, 060-04543), 50 μg/ml G418 (Nacalai, 09380-86) and Penicillin-Streptomycin (Thermo Fisher Scientific, 15140-122). The method for seeding ALS7 (C9orf72) cells on an assay plate is as follows. Matrigel (BD Falcon, D2650) was diluted 20-fold with an assay medium consisting of DMEM/F-12 (1:1) (Thermo Fisher Scientific, 11330-057), N2 supplement (Thermo Fisher Scientific, 17502-048), Penicillin-Streptomycin (Thermo Fisher Scientific, 15140-122), 10 ng/ml recombinant human BDNF (PeproTech, 450-02), 10 ng/ml recombinant human GDNF (PeproTech, 450-10), 10 ng/ml recombinant human NT-3 (PeproTech, 450-03), 1 μM Retinoic acid (Sigma, R2625), 1 μg/ml Doxycycline (Clontech, 631311), 1 μM SAG (Enzo life sciences, ALX-270-426-M001) and 10 μ[…] (Wako, 253-00513), and then a 384-well plate (CellCarrier-384 Ultra, PerkinElmer, 6057300) was coated with the diluted solution. The ALS7 (C9orf72) cells were then suspended in the assay medium, and seeded on the matrigel-coated assay plate at 1×10^4 cells per well. The fluorescent staining method of RNA foci in motor neurons differentiated from ALS7 (C9orf72) cells is as follows. For the ALS7 (C9orf72) cells seeded on the assay plate according to the method described in the previous section, the assay medium containing no Y-27632 was added to the plate four days after seeding, and the cells were cultured. Seven days after seeding, the assay medium (Retinoic Acid, Doxycycline, SAG, Y-27632-free) containing the test compound at a predetermined concentration was added to the plate by medium exchange, and one day after addition of the test compound, PFA (Wako, 163-20145) was added to the plate to fix the cells. After washing with PBS (Wako, 045-29795) was repeated three times, ice-cold methanol (Wako, 131-01826) was added to the plate, and the plate was allowed to stand for 10 minutes at room temperature. DNA probe [[NT] ID NO:1), SIGMA genosys, custom synthesis] was denatured at 80° C. for 75 sec, prepared to 2 μg/μL in a hybri buffer consisting of 50% formamide (Wako, 066-02301), 2×SSC (Nippon Gene, 319-90015), 50 mM sodium phosphate (TEKNOVA, […]), 10% Dextran sulfate (SIGMA, […]), 0.1 mg/mL yeast tRNA ([…], 15401029) and RNase free water (QIAGEN, 129112), and added to the plate, and the plate was allowed to stand at 37° C. for 16 to 24 hrs to bind the probe to the RNA foci. A wash buffer consisting of 50% formamide, 1×SSC and RNase free water was added to the plate, and the plate was allowed to stand at 37° C. for 30 minutes, followed by washing with PBS. Hoechst (invitrogen, H3569) diluted 5000-fold with by PBS was added to the plate, and the plate was allowed to stand for 20 minutes at room temperature to stain the cell nuclei, followed by washing with PBS. The RNA foci in the cell nuclei were detected by analyzing the above treated plate (measuring Cy3 fluorescence) with a high-content analyzer. The high-content analyzer used was Opera Phenix from PerkinElmer. […] The method for detecting the activity of the test compound is as follows.

[2] = tested on: ALS7 (C9orf72) cell-derived motor neurons; assay: Cytotoxicity: intracellular ATP level (CellTiter-Glo); assay type: cell-based, human; conditions: concentration range of 1-10 μM, 48 hours
Protocol: In order to examine the cytotoxicity of the test compound, the intracellular ATP level was measured.
ALS7 (C9orf72) cells were seeded on an assay plate in the same procedure as in Experimental Example 1. Four days after seeding, the assay medium containing no Y-27632 was added to the plate, and the cells were cultured until seven days after seeding, and the assay medium (Retinoic Acid, Doxycycline, SAG, Y-27632-free) containing the test compound at a predetermined concentration was added to the plate by medium exchange. 24 hr or 48 hr after addition of the test compound, the medium was removed, and CellTiter-Glo Luminescent Cell Viability Assay (Promega, G7570) was performed.
The method for detecting the cytotoxicity of the test compound is as follows.
As a negative control, the cells cultured in the assay medium supplemented with DMSO instead of the test compound were used.
The degree of the effect on the intracellular ATP level in the test compound-treated cells was defined as the ATP level of the test compound compared with the negative control, which was calculated by the following formula.
ATP level of the test compound compared to the negative control=X/C×100
X: ATP level in the test compound group, C: ATP level in the DMSO group
When the intracellular ATP level was less than 0.5 times or more than 1.5 times the intracellular ATP level in the negative control, it was judged to be cytotoxic.

Row | Compound | inhibition of RNA foci generation [1] [%] | intracellular ATP level relative to negative control [2] [%]
1 | NS(=O)(=O)Cc1cccc(Nc2ncnc(-c3ccccc3OCc3ccccc3)n2)c1 [Compound No. 4b, 1-[3-({4-[2-(benzyloxy)phenyl]-1,3,5-triazin-2-yl}amino)phenyl]methanesulfonamide] | ≥ 40 | –
2 | CCOC(=O)N=S(C)(=O)Cc1cccc(Nc2ncnc(-c3cccc4c3OCC4)n2)c1 (stereo not drawn) [Compound No. 7, ethyl {[(3-{[4-(2,3-dihydro-1-benzofuran-7-yl)-1,3,5-triazin-2-yl]amino}phenyl)methyl](methyl)oxo-λ^6-sulfanylidene}carbamate] | ≥ 40 | ≥ 80
3 | CCOC(=O)N=S(C)(=O)Cc1cccc(Nc2ncnc(-c3cccc4c3OCCO4)n2)c1 (stereo not drawn) [Compound No. 6, ethyl {[(3-{[4-(2,3-dihydro-1,4-benzodioxin-5-yl)-1,3,5-triazin-2-yl]amino}phenyl)methyl](methyl)oxo-λ^6-sulfanylidene}carbamate] | ≥ 40 | ≥ 80
4 | COc1cc(F)ccc1-c1ncnc(Nc2cccc(CS(C)(=N)=O)c2)n1 (stereo not drawn) [Compound No. 1, 4-(4-fluoro-2-methoxyphenyl)-N-{3-[(S-methanesulfonimidoyl)methyl]phenyl}-1,3,5-triazin-2-amine] | ≥ 40 | ≥ 80
5 | NS(=O)(=O)Cc1cccc(Nc2ncnc(-c3ccccc3OCc3ccccc3)n2)c1.O=C(O)C(F)(F)F [Compound No. 4a, 1-[3-({4-[2-(benzyloxy)phenyl]-1,3,5-triazin-2-yl}amino)phenyl]methanesulfonamide trifluoroacetate] | ≥ 40 | –
6 | CS(=N)(=O)Cc1cccc(Nc2ncnc(-c3ccccc3OCc3ccc(Cl)c(Cl)c3)n2)c1 (stereo not drawn) [Compound No. 5, 4-{2-[(3,4-dichlorophenyl)methoxy]phenyl}-N-{3-[(S-methanesulfonimidoyl)methyl]phenyl}-1,3,5-triazin-2-amine] | ≥ 40 | –
